# Results of single-concentration screens

Sequences of proteins named here, by UniProt entry; tags and fusion partners are left off. Residues count along the entry.
UniProt A4I591, 1-473: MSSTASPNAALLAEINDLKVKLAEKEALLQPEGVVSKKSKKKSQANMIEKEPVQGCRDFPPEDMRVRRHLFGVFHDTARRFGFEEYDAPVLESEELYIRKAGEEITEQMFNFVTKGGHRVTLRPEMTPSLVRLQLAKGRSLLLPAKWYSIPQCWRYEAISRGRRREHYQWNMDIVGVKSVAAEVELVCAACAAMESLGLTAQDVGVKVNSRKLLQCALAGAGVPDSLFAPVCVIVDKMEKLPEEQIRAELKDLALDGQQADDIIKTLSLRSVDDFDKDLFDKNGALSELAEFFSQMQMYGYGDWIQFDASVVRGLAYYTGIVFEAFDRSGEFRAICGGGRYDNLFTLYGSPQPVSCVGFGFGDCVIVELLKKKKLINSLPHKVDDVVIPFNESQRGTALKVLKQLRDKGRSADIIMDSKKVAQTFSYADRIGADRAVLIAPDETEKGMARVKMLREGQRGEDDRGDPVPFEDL

From ChEMBL document CHEMBL3988442, “University of Dundee, Small-Polar-MMV Screening Library” (2021).

Values are the deposited “Percent Effect”, in %.
The controls that fix the scale are not given in the record; negative values are as filed.
Compounds were drawn at random from those tested, without regard to their results.

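Enzyme assay of histidyl-tRNA synthetase; the read-out is not stated. Target: Histidine-tRNA ligase, Leishmania infantum (UniProt A4I591). Compounds at 30 µM. Direction is inferred from retests: higher values go with stronger inhibition. The assay is labelled LdHisRS but filed under L. infantum. Size under these conditions: about 69,000 compounds, about 410 of them at 50% or above in at least one test.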

| # | Compound | percent effect |
|---|---|---|
| 1 | `C[C@@H]1CN(Cc2cc(C(F)(F)F)ccc2F)CC[C@@]1(O)C1CC1` | 12 |
| 2 | `COCCN(Cc1cccs1)C(=O)c1ccc(=O)n(C)c1` | 9.677 |
| 3 | `COc1ccc(-c2cnc(N(C)C)nc2C2CNCCO2)cc1` (configuration not stated) | 6.711 |
| 4 | `O=C(NCCC1=CCCCC1)NCc1nnc2n1CCC2` | 13.64 |
| 5 | `Cc1csc(CN2CC[C@H]3C[C@H](c4nnc(C)[nH]4)O[C@@H]3C2)n1` | 13.33 |
| 6 | `CCOC(=O)N1CCC(Nc2cc(CC)nc3c(C)c(C)nn23)CC1` | 8.642 |
| 7 | `Cc1ncsc1CCC(=O)NC1CCN(c2ncccc2C#N)CC1` | 12.5 |
| 8 | `O=C(CCc1cc2n(n1)CCCNC2)NCCCSC1CCCCC1` | 8.197 |
| 9 | `Cc1cccc(CN2CCC3(CC(C(=O)NCC(C)C)=NO3)C2)c1` (configuration not stated) | 5.66 |
| 10 | `COCCC(=O)N1CCCC(CCC(=O)NCc2ccccc2F)C1` (configuration not stated) | 3.54 |
| 11 | `Cc1n[nH]c(C)c1NC(=O)CN1CCN(c2nccs2)C(C)C1` (configuration not stated) | 12.5 |
| 12 | `Cc1nc(-c2nnc[nH]2)sc1C(=O)N1CCCC1c1ccsc1` (configuration not stated) | 15.71 |
| 13 | `CCS(=O)(=O)N1CCC(NC(=O)c2ccccc2O)CC1` | 17.59 |
| 14 | `CCN(Cc1cnn(CC)c1)C(=O)Cn1c(=O)c(C)nc2ccccc21` | 8.901 |
| 15 | `CCc1ncc(CN2CCC(CCc3ccccc3)CC2)cn1` | 14.94 |
| 16 | `COCCCC(=O)NCc1cccc(NC(N)=O)c1` | 19.05 |
| 17 | `CCN1CC2(CCC1=O)CCN(Cc1cccc(C#N)c1)CC2` | 16.13 |
| 18 | `Cc1noc(C)c1CN1CC[C@H]2[C@H]1CCN2CC1CCOCC1` | 0 |
| 19 | `Cc1cc(Oc2ccccc2C)nc(C2CCCN2)n1` (configuration not stated) | 12.77 |
| 20 | `CC1(COc2ccccc2)NCCc2[nH]cnc21` (configuration not stated) | 11.43 |
| 21 | `CN1C(=O)CCc2cc(NC(=O)C3CC3)ccc21` | 8.696 |
| 22 | `O=C(NCC1CCS(=O)(=O)C1)c1ccc2cccc(Cl)c2n1` (configuration not stated) | 0 |
| 23 | `Cc1cc(CN(C)C(=O)NCc2ccccn2)no1` | 22.22 |
| 24 | `CC(C)c1cccc(S(=O)(=O)NCCCN2CCC(O)CC2)c1` | 11.83 |
| 25 | `Cc1cc(-c2ccc(=O)n(C3CCN(S(=O)(=O)N(C)C)CC3)n2)c(C)o1` | 15.49 |
| 26 | `CCc1nccn1C1CCCN(C(=O)c2cnc3ccccc3n2)C1` (configuration not stated) | 17.14 |
| 27 | `CC1CN(CC(=O)NCc2cccs2)CCN1c1nccs1` (configuration not stated) | 8.929 |
| 28 | `O=C(c1ccc2ccccc2c1)C1CCCN(C(=O)Cn2cncn2)C1` (configuration not stated) | 8.901 |
| 29 | `CN(C)S(=O)(=O)NC1CC(=O)N(c2ccccc2Cl)C1` (configuration not stated) | 19.1 |
| 30 | `Cc1cc(=O)c(C(=O)N2CCC(C(O)Cc3ccccc3)CC2)c(C)[nH]1` (configuration not stated) | -46.15 |
| 31 | `COc1ccc(CCNC(=O)C2CC2)c(Cl)c1` | 3.226 |
| 32 | `COc1c(CNCC(O)COc2ccc3c(c2)OCO3)c(C)nn1C` (configuration not stated) | 21.01 |
| 33 | `c1cncc(N2CCCC3(CCN(CCN4CCCC4)CC3)C2)c1` | 15.28 |
| 34 | `Cn1cc(N2CCN(c3ccc(C#N)c(Cl)c3)CC2=O)cn1` | 11.76 |
| 35 | `COCC(Nc1nc(N(C)C)nc2c1CCNCC2)c1ccccn1` (configuration not stated) | 25.64 |
| 36 | `CCCS(=O)(=O)N1CCN(c2cc(-n3cnc(C)c3C)ncn2)CC1` | 1.613 |
| 37 | `COCCOc1ccc(-c2noc([C@@H]3CCCN3C3CCC3)n2)cn1` | 12.16 |
| 38 | `CCc1ccc(C(=O)NC(C)c2ccc(S(C)(=O)=O)c(F)c2)o1` (configuration not stated) | 27.27 |
| 39 | `Cn1nc(C(C)(C)C)cc1NC(=O)Cn1ccnc1` | 11.48 |
| 40 | `O[C@H]1[C@H](n2cc(-c3ccccn3)nn2)c2ccccc2C12CCNCC2` | 24.24 |
| 41 | `CCCS(=O)(=O)N1CCC2(CC1)CC(=O)N(CCCc1ccccc1)C2` | 24 |
| 42 | `CCCn1cnnc1CNC1CCCC1` | 16.42 |
| 43 | `CC(=O)N1N=C(c2cccs2)OC1C(=O)NCc1ccc(C)o1` (configuration not stated) | 5.941 |
| 44 | `COc1ccnc(CNc2nc(C)nc(C)c2C)c1` | 13.73 |
| 45 | `Cc1cn(-c2ccccc2)nc1NS(=O)(=O)c1cc(C(=O)O)cs1` | 0 |
| 46 | `CC(C)N(CC(N)=O)CC(=O)N(C1=CCCCC1)C1CC1` | 13.7 |
| 47 | `O=C1CCCN1CCN1CCCCC1Cn1cncn1` (configuration not stated) | 15.07 |
| 48 | `CCOc1cc(NC(=O)N2CCC(c3nnc[nH]3)CC2)ccc1C` | 8 |
| 49 | `Cc1cnc(C(=O)NCC2Cc3ccccc3O2)cn1` (configuration not stated) | 19.74 |
| 50 | `Cn1c(Cn2cccn2)nnc1C1CCN(Cc2ccccc2Cl)CC1` | 16.05 |
| 51 | `O=c1c(Cc2ccccc2)c(O)ccn1CCc1ccccc1` | 4.167 |
| 52 | `O=C(NCc1ccco1)c1ccc(N2CCOCC2)cc1` | 1.695 |
| 53 | `O=C(NCCn1nc(C2CCNC2)c2cccnc21)C1CC1` (configuration not stated) | 23.96 |
| 54 | `Cc1cc(CN[C@H](C(N)=O)[C@@H](C)O)c(C)s1` | 5.128 |
| 55 | `Cc1ccc(-n2nnc(CC(=O)N3CCN(C4CC4)CC3)c2C)cc1` | 12.94 |
| 56 | `CCC(=O)N1CCC(Cc2ccccc2-c2ccccc2)(C(N)=O)C1` (configuration not stated) | 12.41 |
| 57 | `O=C(NC[C@]12COC[C@H]1CN(Cc1ccncc1)C2)c1ccno1` | 21 |

The last 5 entries again:

For O=C(NCCn1nc(C2CCNC2)c2cccnc21)C1CC1 (configuration not stated) the result was 23.96%.
For Cc1cc(CN[C@H](C(N)=O)[C@@H](C)O)c(C)s1 the result was 5.128%.
For Cc1ccc(-n2nnc(CC(=O)N3CCN(C4CC4)CC3)c2C)cc1 the result was 12.94%.
For CCC(=O)N1CCC(Cc2ccccc2-c2ccccc2)(C(N)=O)C1 (configuration not stated) the result was 12.41%.
For O=C(NC[C@]12COC[C@H]1CN(Cc1ccncc1)C2)c1ccno1 the result was 21%.